Measurements reported in PubChem BioAssay AID1259308 (NCATS, 2017).
Purpose: 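Candidate targets for better recombinant protein yield in mammalian cells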 (primary screen). Cell system: human HEK293 embryonic kidney cells stably expressing firefly luciferase (HEK-CMV-Luc2-Hygro). Reagent: single siRNA against human genes, 0.8 pmol siRNA per well. Duration: 72 h. Read-out: 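Reporter luminescence and viable-cell signal on separate replicate plates, given as percent of non-targeting control and median/MAD z-scores, plus per-cell luciferase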. Scale: total luciferase, z-score and total luciferase, % of control: higher = more reporter protein produced; luciferase per cell, z-score: higher = more reporter output per viable cell; viable cells, % of control: higher = more viable cells. Rule for the call: 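An siRNA counts as active if its total luciferase robust z-score exceeds 3; genes with two or more such siRNAs out of three were retested with fresh siRNAs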. Calls: active = raised luciferase; inactive = no rise.
This is a random part of about 59,000 reagents tested. Over the whole deposit, about 1,510 (2.6%) got an active call. 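Calls use total luciferase alone and ignore viability, so some active siRNAs may act by altering cell number.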 A number with no mark means an inactive call. Reagents against one gene are numbered here. No sequences are given here.

no.	target	siRNA no.	total luciferase, z-score	total luciferase, % of control	luciferase per cell, z-score	viable cells, % of control
1	SPRNP1	1	2.65	135	1.5	101
2	SPRNP1	2	-0.332	75.3	0.00177	84.1
3	SPRNP1	3	3.29 (active)	147	2.41	87.2
4	MMP23B	1	1.67	115	1.88	78.4
5	MMP23B	2	-0.558	70.8	-1.27	110
6	MMP23B	3	0.733	96.5	0.747	88.5
7	DCTN5	1	2.62	134	2.13	85.3
8	DCTN5	2	-0.458	72.8	-0.486	92.4
9	DCTN5	3	-0.962	62.8	-1.23	96.9
10	TCHP	1	0.316	88.2	0.332	90.3
11	TCHP	2	-0.728	67.4	-0.711	90.8
12	TCHP	3	0.0612	83.1	0.49	81.6
13	RIPK4	1	-0.197	78	-0.173	91.2
14	RIPK4	2	3.26 (active)	147	3.1	72.5
15	RIPK4	3	2.21	126	1.22	102
16	SLC26A10P	1	1.96	121	1.62	88
17	SLC26A10P	2	2.31	128	1.58	94.3
18	SLC26A10P	3	0.756	96.9	0.727	89.5
19	GSG1	1	0.0834	83.5	-0.114	96.2
20	GSG1	2	-3.34	15.4	-3.15	39.5
21	GSG1	3	-0.802	65.9	-1.33	104
22	CDX1	1	0.127	84.4	0.39	85.1
23	CDX1	2	0.445	90.7	0.288	94
24	CDX1	3	1.54	113	2.14	71.5
25	OR13G1	1	-0.0835	80.2	0.0424	88.7
26	OR13G1	2	0.137	84.6	0.447	84.1
27	OR13G1	3	-0.829	65.4	-0.647	86.7
28	CCL1	1	-0.469	72.6	-0.763	99.1
29	CCL1	2	1.55	113	0.656	106
30	CCL1	3	-1.07	60.6	-0.749	82.5
31	SLC18A2	1	0.185	85.6	-0.0412	96.7
32	SLC18A2	2	-0.0661	80.6	-0.277	96.8
33	SLC18A2	3	0.078	83.4	-0.78	114
34	PCBD1	1	-0.316	75.6	1.27	60.5
35	PCBD1	2	1.25	107	0.542	103
36	PCBD1	3	-1.15	59	-1.39	95.1
37	KCNJ8	1	0.85	98.8	2.39	58.8
38	KCNJ8	2	0.131	84.5	-0.168	98.7
39	KCNJ8	3	0.654	94.9	-0.0156	106

Reagents listed above with an active call:
target	siRNA no.	total luciferase, z-score	total luciferase, % of control	luciferase per cell, z-score	viable cells, % of control
SPRNP1	3	3.29 (active)	147	2.41	87.2
RIPK4	2	3.26 (active)	147	3.1	72.5
